{"source": "PubChem BioAssay AID1159578 | Peter MacCallum Cancer Centre – 2015", "aim": "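Knock-downs that alter how fast lymphatic endothelial cells migrate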 (primary screen)", "cells": "human lymphatic endothelial cells", "reagent": "siRNA pool against human genes, 40 nM", "duration": "48 h after transfection", "read-out": "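Cells stained with dye and imaged after a scratch; covered wound area and nuclei counted, duplicates averaged, migration set against mock wells and turned into a robust z-score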", "scale": "migration robust z-score: higher = faster migration into the scratch; nuclei per well: higher = more cells in the well", "active means": "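Migration changed when robust z exceeds 2 or falls below -2 and mean nuclei number is at least 3300; otherwise not called changed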", "meaning of the calls": "active = migration changed; inactive = no migration change, or too few cells", "note": "In all, the deposit lists about 18,000 reagents; shown is a part drawn at random. About 1,030 of them (5.7%) were called active. 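Inactive calls also include pools with fewer than 3300 nuclei, whose migration was not assessed.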 Raw values are not corrected between plates. Further read-outs or replicates are left out here."}
{"gene": "OSBPL2 (oxysterol binding protein like 2)", "migration robust z-score": 0.9, "migration class with cell-count check": "migration z between -2 and 2; enough cells", "nuclei per well, duplicate mean": 6250, "activity call": "inactive"}
{"gene": "DUSP8 (dual specificity phosphatase 8)", "migration robust z-score": -0.42, "migration class with cell-count check": "migration z between -2 and 2; enough cells", "nuclei per well, duplicate mean": 5238, "activity call": "inactive"}
{"gene": "EFHD2 (EF-hand domain family member D2)", "migration robust z-score": -2.12, "migration class with cell-count check": "migration z below -2; enough cells", "nuclei per well, duplicate mean": 4500, "activity call": "active"}
{"gene": "DNAJA1 (DnaJ heat shock protein family (Hsp40) member A1)", "migration robust z-score": -0.02, "migration class with cell-count check": "migration z between -2 and 2; enough cells", "nuclei per well, duplicate mean": 6244, "activity call": "inactive"}
{"gene": "ANGPT2 (angiopoietin 2)", "migration robust z-score": -2.93, "migration class with cell-count check": "migration z below -2; enough cells", "nuclei per well, duplicate mean": 5713, "activity call": "active"}
{"gene": "ZNF414 (zinc finger protein 414)", "migration robust z-score": -0.19, "migration class with cell-count check": "migration z between -2 and 2; enough cells", "nuclei per well, duplicate mean": 5584, "activity call": "inactive"}
{"gene": "PNO1 (partner of NOB1 homolog)", "migration robust z-score": -0.22, "migration class with cell-count check": "migration z between -2 and 2; enough cells", "nuclei per well, duplicate mean": 4782, "activity call": "inactive"}
{"gene": "SPANXN1 (SPANX family member N1)", "migration robust z-score": -1.98, "migration class with cell-count check": "migration z between -2 and 2; enough cells", "nuclei per well, duplicate mean": 6080, "activity call": "inactive"}
{"gene": "NAGA (alpha-N-acetylgalactosaminidase)", "migration robust z-score": -0.34, "migration class with cell-count check": "migration z between -2 and 2; enough cells", "nuclei per well, duplicate mean": 5366, "activity call": "inactive"}
{"gene": "LPAR2 (lysophosphatidic acid receptor 2)", "migration robust z-score": -1.45, "migration class with cell-count check": "migration z between -2 and 2; enough cells", "nuclei per well, duplicate mean": 4807, "activity call": "inactive"}
{"gene": "PSMG3 (proteasome assembly chaperone 3)", "migration robust z-score": -1.06, "migration class with cell-count check": "migration z between -2 and 2; enough cells", "nuclei per well, duplicate mean": 6298, "activity call": "inactive"}
{"gene": "EHF (ETS homologous factor)", "migration robust z-score": 0.94, "migration class with cell-count check": "migration z between -2 and 2; enough cells", "nuclei per well, duplicate mean": 5714, "activity call": "inactive"}
{"gene": "THBS3 (thrombospondin 3)", "migration robust z-score": -1.34, "migration class with cell-count check": "under 3300 nuclei; migration not judged", "nuclei per well, duplicate mean": 2914, "activity call": "inactive"}
{"gene": "PTCRA (pre T cell antigen receptor alpha)", "migration robust z-score": 0.74, "migration class with cell-count check": "migration z between -2 and 2; enough cells", "nuclei per well, duplicate mean": 6214, "activity call": "inactive"}

Targets above whose target name begins with D or d:
{"gene": "DUSP8 (dual specificity phosphatase 8)", "migration robust z-score": -0.42, "migration class with cell-count check": "migration z between -2 and 2; enough cells", "nuclei per well, duplicate mean": 5238, "activity call": "inactive"}
{"gene": "DNAJA1 (DnaJ heat shock protein family (Hsp40) member A1)", "migration robust z-score": -0.02, "migration class with cell-count check": "migration z between -2 and 2; enough cells", "nuclei per well, duplicate mean": 6244, "activity call": "inactive"}
